Measurements as given in PubChem BioAssay AID256 (DTP/NCI, 2004).
The list shows only some results of the screen, not a fair sample: it gathers tests that were run many times, whatever their T/C, doses with no T/C, and many T/C values between a quarter and a half above the control. Further doses and runs are listed elsewhere. T/C is the treated group as % of the vehicle group. Some entries give survivors of the animals treated and no T/C: the source holds a T/C of zero for them, seemingly a mark for toxic or unscored doses. Some survivor counts are full or nearly so, which does not show that the dose was tolerated: survival well below the control is almost never listed, so the zero probably covers shortened survival too. Counts of survivors are from the toxicity check (mostly the fifth day) where no day follows; animals may have died later. Schedules are NCI's codes, taken here to give the interval after Q, in days (D) or hours (H), and the number of doses after X. Where survival is the endpoint, this PubChem deposit counts one and a half times the control or more as active, and values a quarter to a half above the control carry no call in these data; other NCI protocols may use other cut-offs. Some entries hold several experiments; their values stand side by side, smallest first. Some T/C values are followed by the survivors on the day toxicity was checked, most often the fifth; without a count, all were alive then.

System: CD2F1 mice, L1210 leukemia ip, survival T/C
Test: NCI In Vivo Anticancer Drug Screen. Data for tumor model L1210 Leukemia (intraperitoneal) in CD2F1 (CDF1) mice
Settings: higher T/C = longer survival
Outline: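 Each value reflects a quotient of treated over vehicle control outcomes in mice with a transplanted tumor.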

[1] = T/C endpoint: mean survival time, dose: 200.0 mg/kg/injection, schedule: Q01DX009 (ip), vehicle: saline with Tween-80
[2] = T/C endpoint: mean survival time, dose: 400.0 mg/kg/injection, schedule: Q01DX009 (ip), vehicle: saline with Tween-80
[3] = T/C endpoint: mean survival time, dose: 4.0 mg/kg/injection, schedule: Q01DX005 (ip), vehicle: sodium bicarbonate
[4] = T/C endpoint: mean survival time, dose: 100.0 mg/kg/injection, schedule: Q04DX003 (ip), vehicle: other
[5] = T/C endpoint: mean survival time, dose: 400.0 mg/kg/injection, schedule: Q04DX003 (ip), vehicle: saline with Tween-80
[6] = T/C endpoint: mean survival time, dose: 400.0 mg/kg/injection, schedule: Q01DX001 (ip), vehicle: saline with Tween-80
[7] = T/C endpoint: mean survival time, dose: 100.0 mg/kg/injection, schedule: Q01DX009 (ip), vehicle: saline with Tween-80
[8] = T/C endpoint: mean survival time, dose: 200.0 mg/kg/injection, schedule: Q01DX001 (ip), vehicle: saline with Tween-80
[9] = T/C endpoint: mean survival time, dose: 100.0 mg/kg/injection, schedule: Q04DX002 (ip), vehicle: saline with Tween-80
[10] = T/C endpoint: mean survival time, dose: 200.0 mg/kg/injection, schedule: Q04DX002 (ip), vehicle: saline with Tween-80
[11] = T/C endpoint: mean survival time, dose: 400.0 mg/kg/injection, schedule: Q04DX002 (ip), vehicle: saline with Tween-80
[12] = T/C endpoint: mean survival time, dose: 12.5 mg/kg/injection, schedule: Q01DX009 (ip), vehicle: saline with Tween-80
[13] = T/C endpoint: mean survival time, dose: 100.0 mg/kg/injection, schedule: Q04DX003 (ip), vehicle: saline with Tween-80
[14] = T/C endpoint: mean survival time, dose: 200.0 mg/kg/injection, schedule: Q04DX003 (ip), vehicle: saline with Tween-80
[15] = T/C endpoint: mean survival time, dose: 25.0 mg/kg/injection, schedule: Q01DX009 (ip), vehicle: saline with Tween-80
[16] = T/C endpoint: mean survival time, dose: 50.0 mg/kg/injection, schedule: Q01DX009 (ip), vehicle: saline with Tween-80

Structure (SMILES): O=C(O)c1cc(=O)cc(C(=O)O)o1
- survivor count (T/C endpoint: mean survival time, dose: 200.0 mg/kg/injection, schedule: Q01DX009 (ip), vehicle: Klucel (hydroxypropylcellulose) (HPC)): 2 of 3

Structure (SMILES): O=NN(CCCl)C(=O)NC1CCCN(Cc2ccccc2)C1 (configuration not stated)
- T/C (T/C endpoint: mean survival time, dose: 25.0 mg/kg/injection, schedule: Q01DX001 (ip), vehicle: saline with Tween-80): 131 % of control

Structure (SMILES): CCCSCC
- survivor count [1]: 6 of 6
- survivor count [2]: 5 of 6

Structure (SMILES): Nc1nc(N)c2nc(CSc3ccc(C(=O)NC(CCC(=O)O)C(=O)O)cc3)ccc2n1 (configuration not stated)
- T/C (T/C endpoint: mean survival time, dose: 0.25 mg/kg/injection, schedule: Q01DX005 (ip), vehicle: sodium bicarbonate): 136 % of control
- T/C (T/C endpoint: mean survival time, dose: 0.5 mg/kg/injection, schedule: Q01DX005 (ip), vehicle: sodium bicarbonate): 140 % of control
- T/C (T/C endpoint: mean survival time, dose: 1.0 mg/kg/injection, schedule: Q01DX005 (ip), vehicle: sodium bicarbonate): 142 and 144 % of control
- T/C (T/C endpoint: mean survival time, dose: 2.0 mg/kg/injection, schedule: Q01DX005 (ip), vehicle: sodium bicarbonate): 142 % of control
- T/C [3]: 148 % of control
- survivor count [3]: 6 of 6
- survivor count (T/C endpoint: mean survival time, dose: 8.0 mg/kg/injection, schedule: Q01DX005 (ip), vehicle: sodium bicarbonate): 5 of 6
- survivor count (T/C endpoint: mean survival time, dose: 16.0 mg/kg/injection, schedule: Q01DX005 (ip), vehicle: sodium bicarbonate): 5 of 6

Structure (SMILES): [I][Pt+2][I].[NH-]CC1CCCC[N-]1 (configuration not stated)
- survivor count (T/C endpoint: mean survival time, dose: 100.0 mg/kg/injection, schedule: Q04DX003 (ip), vehicle: distilled water + Tween-80): 3 of 6
- survivor count (T/C endpoint: mean survival time, dose: 200.0 mg/kg/injection, schedule: Q04DX003 (ip), vehicle: distilled water + Tween-80): 0 of 6

Structure (SMILES): Cc1ccc(CNc2ccccc2)cc1
- survivor count [4]: 6 of 6

Structure (SMILES): CCOC(=O)COC(CN)C(Cl)(Cl)Cl (configuration not stated)
- survivor count [5]: 1 of 6

Structure (SMILES): COc1ccc(CC(=O)NCCc2ccc3c(c2)OCO3)cc1
- survivor count [6]: 1 of 6

Structure (SMILES): O=C(O)/C=C\C(=O)Nc1ccc(Cl)cc1Cl
- survivor count [2]: 1 of 6

Structure (SMILES): CC(=O)OCC#CCOC(C)=O
- survivor count [7]: 3 of 6
- survivor count [1]: 0 of 6

Structure (SMILES): COC1=[C]([Hg][Br])C(OC)OC1OC (configuration not stated)
- survivor count (T/C endpoint: mean survival time, dose: 100.0 mg/kg/injection, schedule: Q01DX001 (ip), vehicle: saline with Tween-80): 0 of 6
- survivor count [8]: 0 of 6
- survivor count [6]: 0 of 6

Structure (SMILES): CN(C)CCCNC/C=C\CNCCCN(C)C
- survivor count (T/C endpoint: mean survival time, dose: 400.0 mg/kg/injection, schedule: Q04DX003 (ip), vehicle: saline): 4 of 6

Structure (SMILES): O=[As](O)(CC(O)c1ccccc1)c1cccc(Cl)c1 (configuration not stated)
- survivor count (T/C endpoint: mean survival time, dose: 25.0 mg/kg/injection, schedule: Q04DX003 (ip), vehicle: saline with Tween-80): 0 of 6

Structure (SMILES): C[C@]1(O)CC[C@H]2[C@@H]3CCC4=CC(=O)CC[C@]4(C)[C@@]3(Cl)[C@@H](O)C[C@@]21C
- T/C (T/C endpoint: mean survival time, dose: 400.0 mg/kg/injection, schedule: Q04DX003 (ip), vehicle: saline sonified): 129 % of control

Structure (SMILES): CC1(C)CC(=O)C(CSC(=O)c2ccccc2)C(=O)C1
- survivor count (T/C endpoint: mean survival time, dose: 100.0 mg/kg/injection, schedule: Q01DX009 (ip), vehicle: Klucel (hydroxypropylcellulose) (HPC)): 0 of 10

Structure (SMILES): O=C1OC(=O)[C@H]2[C@@H]1[C@H]1C=C[C@@H]2OC1=O
- survivor count (T/C endpoint: median survival time, dose: 400.0 mg/kg/injection, schedule: Q01DX009 (ip), vehicle: saline): 5 of 6

Structure (SMILES): C1SCc2c1c1c(c3c2CSC3)CSC1
- survivor count [8]: 6 of 6

Structure (SMILES): COc1ccc(OC)c(C2N(Cc3ccc(N(C)C)cc3)CCCN2Cc2ccc(N(C)C)cc2)c1
- survivor count [5]: 5 of 6

Structure (SMILES): O=S(=O)(OCCCCCOS(=O)(=O)c1cccnc1)c1cccnc1
- T/C (T/C endpoint: mean survival time, dose: 20.0 mg/kg/injection, schedule: Q04DX002 (ip), vehicle: saline with Tween-80): 130 % of control
- survivor count [9]: 0 of 3
- survivor count [10]: 0 of 3
- survivor count [11]: 0 of 3

Structure (SMILES): C[N+](C)(C)CSSC[N+](C)(C)C
- survivor count [9]: 0 of 3
- survivor count [10]: 0 of 3
- survivor count [11]: 0 of 3

Structure (SMILES): C=CCc1cc(O)c(CC=C)cc1O
- survivor count [11]: 0 of 3

Structure (SMILES): NC(=S)N/N=C\c1ccccn1
- T/C (T/C endpoint: mean survival time, dose: 8.3 mg/kg/injection, schedule: Q01DX009 (ip), vehicle: saline with Tween-80): 147 % of control
- T/C [12]: 127 % of control
- survivor count (T/C endpoint: mean survival time, dose: 18.75 mg/kg/injection, schedule: Q01DX009 (ip), vehicle: saline with Tween-80): 2 of 6
- survivor count [13]: 1 of 6
- survivor count [14]: 0 of 6
- survivor count [5]: 0 of 6

Structure (SMILES): COC1C(C)OC(OC2CC(C)(O)C(C(=O)O)c3cc4c(c(O)c32)C(=O)c2c(O)cc3c(c2C4=O)OC2OC3(C)C(O)C(N(C)C)C2O)C(OC)C1(C)OC (configuration not stated)
- survivor count (T/C endpoint: mean survival time, dose: 40.0 mg/kg/injection, schedule: Q01DX009 (ip), vehicle: other): 5 of 6

Structure (SMILES): C(=N/N=C/c1ccc2c(c1)OCO2)/c1ccco1
- survivor count [7]: 6 of 6

Structure (SMILES): COC(=O)C(CSC(c1ccccc1)(c1ccccc1)c1ccccc1)NC(=O)CCNC(=O)OCc1ccccc1 (configuration not stated)
- survivor count (T/C endpoint: mean survival time, dose: 200.0 mg/kg/injection, schedule: Q01DX009 (ip), vehicle: water): 6 of 6

Structure (SMILES): COC(CCCl)c1ccc(Cl)cc1 (configuration not stated)
- survivor count [5]: 3 of 6

Structure (SMILES): CN(C)/N=N/c1[nH]ncc1C(N)=O
- T/C (T/C endpoint: mean survival time, dose: 300.0 mg/kg/injection, schedule: Q01DX001 (oral), vehicle: saline): 142 % of control
- T/C (T/C endpoint: mean survival time, dose: 600.0 mg/kg/injection, schedule: Q01DX001 (oral), vehicle: saline): 139 % of control [5 of 6 alive]

Structure (SMILES): C1CCC(NC2=NCCO2)CC1
- survivor count [14]: 0 of 6
- survivor count [5]: 0 of 6

Structure (SMILES): N#CC12CC3CC(CC(C3)C1)C2
- survivor count [13]: 0 of 6
- survivor count [14]: 0 of 6
- survivor count [5]: 0 of 6

Structure (SMILES): CC(C)C1(C(C)C)OCCO1
- survivor count [5]: 5 of 6

Structure (SMILES): C#CC1(OC(=O)Nc2ccccc2)CCCCC1
- survivor count [11]: 3 of 3

Structure (SMILES): CN(C)CCN1C(=O)c2cccc3cc([N+](=O)[O-])cc(c23)C1=O
- T/C (T/C endpoint: mean survival time, dose: 3.0 mg/kg/injection, schedule: Q01DX009 (ip), vehicle: saline with Tween-80): 128 % of control
- survivor count (T/C endpoint: mean survival time, dose: 12.0 mg/kg/injection, schedule: Q01DX009 (ip), vehicle: saline with Tween-80): 6 of 6
- survivor count (T/C endpoint: mean survival time, dose: 24.0 mg/kg/injection, schedule: Q01DX009 (ip), vehicle: saline with Tween-80): 6 of 6
- survivor count (T/C endpoint: mean survival time, dose: 24.0 mg/kg/injection, schedule: Q01DX009 (ip), vehicle: saline): 6 of 6
- T/C (T/C endpoint: median survival time, dose: 6.0 mg/kg/injection, schedule: Q01DX009 (ip), vehicle: saline with Tween-80): 128 % of control
- T/C (T/C endpoint: median survival time, dose: 12.0 mg/kg/injection, schedule: Q01DX009 (ip), vehicle: saline with Tween-80): 132 % of control

Structure (SMILES): CC1=NC2(CCCCC2)C[N+]1(Cc1ccccc1)Cc1ccccc1
- survivor count (T/C endpoint: mean survival time, dose: 100.0 mg/kg/injection, schedule: Q01DX009 (ip), vehicle: acetone): 2 of 6

Structure (SMILES): ClC1C(c2ccccc2)=C(c2ccccc2)c2ccccc21 (configuration not stated)
- survivor count [7]: 5 of 6
- survivor count [6]: 5 of 6

Structure (SMILES): COc1ccc(/C=N\NC(=O)CNC(=O)Nc2cccc(C(F)(F)F)c2)cc1OC
- survivor count [15]: 3 of 3
- survivor count [16]: 3 of 3

Structure (SMILES): CCc1nc(N)nc(N)c1-c1ccc(Cl)c([N+](=O)[O-])c1
- T/C [12]: 125 % of control
- T/C [15]: 130 % of control
- T/C [16]: 130 % of control

Structure (SMILES): c1ccc(Cn2cc(CCc3ccncc3)c3ccccc32)cc1
- survivor count [1]: 2 of 6
- survivor count [5]: 0 of 6

Structure (SMILES): S=C=NCc1cccc(CN=C=S)c1
- survivor count (T/C endpoint: mean survival time, dose: 6.0 mg/kg/injection, schedule: Q01DX009 (ip), vehicle: saline with Tween-80): 3 of 6

Structure (SMILES): c1ccc([P+](C[P+](c2ccccc2)(c2ccccc2)c2ccccc2)(c2ccccc2)c2ccccc2)cc1
- survivor count [4]: 0 of 6
- survivor count (T/C endpoint: mean survival time, dose: 200.0 mg/kg/injection, schedule: Q04DX003 (ip), vehicle: other): 0 of 6
- survivor count (T/C endpoint: mean survival time, dose: 400.0 mg/kg/injection, schedule: Q04DX003 (ip), vehicle: other): 0 of 6
